Test results as given in PMC9977683, “IFNγ binding to extracellular matrix prevents fatal systemic toxicity” (Nature Immunology, 2023).

The chains behind the UniProt entries cited, without tags or fusion partners. Where a name states a change or a piece, a line headed by the entry shows the natural chain unless it says otherwise.
UniProt P01580: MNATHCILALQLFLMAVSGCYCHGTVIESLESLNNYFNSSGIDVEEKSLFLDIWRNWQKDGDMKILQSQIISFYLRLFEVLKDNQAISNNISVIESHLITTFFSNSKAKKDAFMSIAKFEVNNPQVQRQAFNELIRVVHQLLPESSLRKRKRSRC

Molecular target: T1, IFNγR1 extracellular domain (amino acids 26–254), recombinant (mouse) (UniProt P15261)
T1 sequence: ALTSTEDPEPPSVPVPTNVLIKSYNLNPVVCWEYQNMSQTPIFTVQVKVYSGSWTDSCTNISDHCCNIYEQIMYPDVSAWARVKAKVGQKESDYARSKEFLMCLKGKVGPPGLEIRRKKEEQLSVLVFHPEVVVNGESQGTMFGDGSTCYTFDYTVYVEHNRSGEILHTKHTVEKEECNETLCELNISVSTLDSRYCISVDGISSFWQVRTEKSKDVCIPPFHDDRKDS
Assay: SPR; Biacore T200, CM4 chip coated with anti-His5 onto which recombinant IFNγR1 was immobilised; IFNγ variants injected over 180 s at 0, 1, 2.5, 5, 10, 25 and 50 nM; both purified

binding	Substance
binds	IFNγ^ΔKRKR–GFP fusion protein, recombinant (from UniProt P01580) (ligand)
binds	IFNγ^ΔKRKR, recombinant (IFNγ lacking the ECM-binding domain KRKR) (from UniProt P01580) (ligand)

These are yes or no findings as the source states them, for the method shown. Binding can be weak; no strength is given.
